Assay results published in article doi:10.1101/569459 (bioRxiv, 2019).
These are yes or no findings as the source states them, for the method shown. Binding seen in cells or lysates may run through a third protein. Here binding means that the protein was enriched with, or labelled near, the bait; the list need not be complete.

The chains behind the UniProt entries cited, without tags or fusion partners. Where a name states a change or a piece, a line headed by the entry shows the natural chain unless it says otherwise.
UniProt Q15058, whole entry, stated change not applied: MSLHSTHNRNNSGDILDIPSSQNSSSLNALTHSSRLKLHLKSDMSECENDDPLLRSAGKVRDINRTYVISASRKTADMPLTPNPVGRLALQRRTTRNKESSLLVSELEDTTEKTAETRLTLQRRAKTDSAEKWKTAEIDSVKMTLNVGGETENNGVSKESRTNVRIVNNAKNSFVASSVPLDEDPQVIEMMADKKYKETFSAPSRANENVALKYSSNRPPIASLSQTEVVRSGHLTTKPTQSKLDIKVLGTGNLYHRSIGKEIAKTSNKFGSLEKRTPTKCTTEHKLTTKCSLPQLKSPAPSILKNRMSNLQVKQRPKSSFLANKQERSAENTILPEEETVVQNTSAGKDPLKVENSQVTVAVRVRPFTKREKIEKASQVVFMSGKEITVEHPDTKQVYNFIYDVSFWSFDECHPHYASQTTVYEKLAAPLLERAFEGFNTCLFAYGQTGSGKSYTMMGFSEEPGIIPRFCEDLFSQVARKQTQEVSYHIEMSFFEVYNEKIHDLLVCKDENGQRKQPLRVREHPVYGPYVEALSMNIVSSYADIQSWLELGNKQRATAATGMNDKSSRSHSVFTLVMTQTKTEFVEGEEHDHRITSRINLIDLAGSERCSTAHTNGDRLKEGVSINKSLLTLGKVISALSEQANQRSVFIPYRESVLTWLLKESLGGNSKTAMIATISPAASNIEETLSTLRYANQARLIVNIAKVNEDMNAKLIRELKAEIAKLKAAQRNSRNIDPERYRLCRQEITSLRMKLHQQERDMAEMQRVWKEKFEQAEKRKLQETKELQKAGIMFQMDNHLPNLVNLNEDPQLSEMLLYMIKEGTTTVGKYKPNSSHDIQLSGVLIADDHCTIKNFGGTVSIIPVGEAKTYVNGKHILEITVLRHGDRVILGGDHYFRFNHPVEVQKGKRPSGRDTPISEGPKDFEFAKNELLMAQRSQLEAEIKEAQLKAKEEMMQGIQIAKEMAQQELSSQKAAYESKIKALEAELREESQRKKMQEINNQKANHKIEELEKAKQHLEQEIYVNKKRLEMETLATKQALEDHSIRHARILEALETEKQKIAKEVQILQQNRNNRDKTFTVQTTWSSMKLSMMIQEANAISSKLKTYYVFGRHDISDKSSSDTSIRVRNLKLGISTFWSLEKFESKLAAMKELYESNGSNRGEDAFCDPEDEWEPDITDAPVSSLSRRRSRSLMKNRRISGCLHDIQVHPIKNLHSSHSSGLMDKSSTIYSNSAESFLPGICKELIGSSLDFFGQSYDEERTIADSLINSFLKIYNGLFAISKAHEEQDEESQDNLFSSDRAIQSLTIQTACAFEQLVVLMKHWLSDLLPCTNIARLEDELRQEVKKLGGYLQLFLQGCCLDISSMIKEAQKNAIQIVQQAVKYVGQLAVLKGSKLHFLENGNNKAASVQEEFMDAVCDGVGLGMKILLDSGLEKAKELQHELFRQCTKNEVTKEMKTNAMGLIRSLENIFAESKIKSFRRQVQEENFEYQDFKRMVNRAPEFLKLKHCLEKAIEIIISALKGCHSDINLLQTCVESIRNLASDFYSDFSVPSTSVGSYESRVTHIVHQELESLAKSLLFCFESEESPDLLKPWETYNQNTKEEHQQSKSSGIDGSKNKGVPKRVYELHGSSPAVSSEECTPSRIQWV
UniProt O14578, whole entry, stated change not applied: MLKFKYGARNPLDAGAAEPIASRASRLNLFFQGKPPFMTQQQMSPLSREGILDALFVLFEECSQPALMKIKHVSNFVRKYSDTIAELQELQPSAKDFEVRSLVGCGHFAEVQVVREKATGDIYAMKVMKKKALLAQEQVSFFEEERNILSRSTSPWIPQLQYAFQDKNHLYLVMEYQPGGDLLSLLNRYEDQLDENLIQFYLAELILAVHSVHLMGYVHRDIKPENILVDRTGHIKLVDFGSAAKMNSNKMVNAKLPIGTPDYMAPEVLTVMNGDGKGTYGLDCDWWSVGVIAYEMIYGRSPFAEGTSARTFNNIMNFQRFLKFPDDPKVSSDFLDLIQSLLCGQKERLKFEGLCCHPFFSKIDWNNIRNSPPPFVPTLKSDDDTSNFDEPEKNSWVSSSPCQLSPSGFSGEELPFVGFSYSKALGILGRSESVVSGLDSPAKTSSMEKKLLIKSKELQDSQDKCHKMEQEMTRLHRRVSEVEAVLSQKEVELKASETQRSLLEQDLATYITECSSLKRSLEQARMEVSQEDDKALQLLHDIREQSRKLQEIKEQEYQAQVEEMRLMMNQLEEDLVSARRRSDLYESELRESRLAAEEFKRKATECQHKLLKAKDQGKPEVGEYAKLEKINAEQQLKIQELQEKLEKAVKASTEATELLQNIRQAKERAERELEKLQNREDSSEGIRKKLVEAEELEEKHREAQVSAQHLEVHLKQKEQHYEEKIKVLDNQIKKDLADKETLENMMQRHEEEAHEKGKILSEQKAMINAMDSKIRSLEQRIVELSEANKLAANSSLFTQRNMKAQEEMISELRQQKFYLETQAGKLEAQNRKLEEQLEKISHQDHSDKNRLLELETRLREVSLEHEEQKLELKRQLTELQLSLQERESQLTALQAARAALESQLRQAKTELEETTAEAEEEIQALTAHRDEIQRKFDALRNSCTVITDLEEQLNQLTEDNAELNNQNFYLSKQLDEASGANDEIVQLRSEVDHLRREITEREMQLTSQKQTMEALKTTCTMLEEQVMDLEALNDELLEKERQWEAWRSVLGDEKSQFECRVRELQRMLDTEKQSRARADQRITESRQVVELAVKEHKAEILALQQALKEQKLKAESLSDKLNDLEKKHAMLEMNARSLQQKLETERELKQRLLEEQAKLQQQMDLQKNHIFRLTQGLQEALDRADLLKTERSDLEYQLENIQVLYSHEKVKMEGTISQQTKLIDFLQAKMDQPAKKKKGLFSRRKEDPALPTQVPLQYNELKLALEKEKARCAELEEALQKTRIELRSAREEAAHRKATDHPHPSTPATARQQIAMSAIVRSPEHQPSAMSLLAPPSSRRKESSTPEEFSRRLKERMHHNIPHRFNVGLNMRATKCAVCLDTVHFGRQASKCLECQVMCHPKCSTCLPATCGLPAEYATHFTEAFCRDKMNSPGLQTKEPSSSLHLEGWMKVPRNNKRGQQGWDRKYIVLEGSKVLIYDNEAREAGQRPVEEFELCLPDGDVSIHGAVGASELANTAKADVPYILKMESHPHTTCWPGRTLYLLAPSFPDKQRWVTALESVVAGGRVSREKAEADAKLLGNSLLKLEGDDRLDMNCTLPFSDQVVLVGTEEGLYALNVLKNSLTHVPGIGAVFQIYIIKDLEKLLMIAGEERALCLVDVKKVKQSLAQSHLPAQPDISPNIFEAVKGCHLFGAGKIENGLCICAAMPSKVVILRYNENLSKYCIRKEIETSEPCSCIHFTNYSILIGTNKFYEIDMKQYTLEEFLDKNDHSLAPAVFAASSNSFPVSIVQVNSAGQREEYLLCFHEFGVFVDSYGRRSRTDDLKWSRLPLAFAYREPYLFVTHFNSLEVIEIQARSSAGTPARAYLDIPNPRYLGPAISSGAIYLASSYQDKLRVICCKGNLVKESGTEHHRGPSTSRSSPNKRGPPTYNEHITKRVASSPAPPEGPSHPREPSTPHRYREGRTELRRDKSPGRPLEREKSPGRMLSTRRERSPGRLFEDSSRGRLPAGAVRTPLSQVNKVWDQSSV

Legend:
[1] = target: KIF14 (tagged bait of the AP-MS) (UniProt Q15058); assay: affinity purification with mass spectrometry
[2] = target: Citron kinase tagged with GFP (CIT-K::AcGFP) (UniProt O14578); assay: affinity purification with mass spectrometry

binding [1]: binds
binding [2]: binds
B1: microtubule depolymerizing kinesin KIF2C/MCAK (protein, UniProt Q99661 1-725)
chain: MAMDSSLQARLFPGLAIKIQRSNGLIHSANVRTVNLEKSCVSVEWAEGGATKGKEIDFDDVAAINPELLQLLPLHPKDNLPLQENVTIQKQKRRSVNSKIPAPKESLRSRSTRMSTVSELRITAQENDMEVELPAAANSRKQFSVPPAPTRPSCPAVAEIPLRMVSEEMEEQVHSIRGSSSANPVNSVRRKSCLVKEVEKMKNKREEKKAQNSEMRMKRAQEYDSSFPNWEFARMIKEFRATLECHPLTMTDPIEEHRICVCVRKRPLNKQELAKKEIDVISIPSKCLLLVHEPKLKVDLTKYLENQAFCFDFAFDETASNEVVYRFTARPLVQTIFEGGKATCFAYGQTGSGKTHTMGGDLSGKAQNASKGIYAMASRDVFLLKNQPCYRKLGLEVYVTFFEIYNGKLFDLLNKKAKLRVLEDGKQQVQVVGLQEHLVNSADDVIKMIDMGSACRTSGQTFANSNSSRSHACFQIILRAKGRMHGKFSLVDLAGNERGADTSSADRQTRMEGAEINKSLLALKECIRALGQNKAHTPFRESKLTQVLRDSFIGENSRTCMIATISPGISSCEYTLNTLRYADRVKELSPHSGPSGEQLIQMETEEMEACSNGALIPGNLSKEEEELSSQMSSFNEAMTQIRELEEKAMEELKEIIQQGPDWLELSEMTEQPDYDLETFVNKAESALAQQAKHFSALRDVIKALRLAMQLEEQASRQISSKKRPQ
